Data: paper PMC6705879
No constants are given. Whether binding was seen depends on the method and setting. Binding seen in cells or lysates may run through a third protein. Some binding calls cover weakened binding; strength is not graded here. For some assays here: Where a sequence is shown, tags or fusion partners need not be part of it.

Experiments:
[1] = target: T1, HA-tagged TBK1 (UniProt Q9UHD2); assay: co-IP; 293T cells transfected with the indicated plasmids for 48 hours; Nonidet P-40 lysis buffer (150 mM NaCl, 1 mM EDTA, 1% Nonidet P-40); antibody 4 h at 4 °C, protein A/G agarose; washed three times with lysis buffer containing 500 mM NaCl
T1 sequence: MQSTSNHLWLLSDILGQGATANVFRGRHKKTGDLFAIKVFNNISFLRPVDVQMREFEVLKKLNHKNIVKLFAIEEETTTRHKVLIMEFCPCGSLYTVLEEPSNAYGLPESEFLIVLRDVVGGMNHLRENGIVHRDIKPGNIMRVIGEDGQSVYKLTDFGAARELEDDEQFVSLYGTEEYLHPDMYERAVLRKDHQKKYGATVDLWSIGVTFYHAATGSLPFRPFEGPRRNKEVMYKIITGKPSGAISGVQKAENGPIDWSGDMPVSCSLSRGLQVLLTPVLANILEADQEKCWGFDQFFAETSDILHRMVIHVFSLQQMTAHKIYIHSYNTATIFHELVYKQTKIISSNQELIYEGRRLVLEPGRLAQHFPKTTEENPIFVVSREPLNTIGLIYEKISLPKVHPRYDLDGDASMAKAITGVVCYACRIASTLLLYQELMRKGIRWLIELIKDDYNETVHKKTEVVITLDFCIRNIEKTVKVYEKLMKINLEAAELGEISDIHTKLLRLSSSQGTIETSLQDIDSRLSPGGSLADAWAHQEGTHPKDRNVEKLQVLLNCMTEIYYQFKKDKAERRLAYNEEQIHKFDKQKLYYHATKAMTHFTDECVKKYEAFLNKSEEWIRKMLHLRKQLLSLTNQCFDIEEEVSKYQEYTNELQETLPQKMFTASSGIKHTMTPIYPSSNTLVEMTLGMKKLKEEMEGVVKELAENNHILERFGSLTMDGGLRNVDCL

[2] = target: T2, Flag-tagged TAK1 (UniProt O43318); assay: as above
T2 sequence: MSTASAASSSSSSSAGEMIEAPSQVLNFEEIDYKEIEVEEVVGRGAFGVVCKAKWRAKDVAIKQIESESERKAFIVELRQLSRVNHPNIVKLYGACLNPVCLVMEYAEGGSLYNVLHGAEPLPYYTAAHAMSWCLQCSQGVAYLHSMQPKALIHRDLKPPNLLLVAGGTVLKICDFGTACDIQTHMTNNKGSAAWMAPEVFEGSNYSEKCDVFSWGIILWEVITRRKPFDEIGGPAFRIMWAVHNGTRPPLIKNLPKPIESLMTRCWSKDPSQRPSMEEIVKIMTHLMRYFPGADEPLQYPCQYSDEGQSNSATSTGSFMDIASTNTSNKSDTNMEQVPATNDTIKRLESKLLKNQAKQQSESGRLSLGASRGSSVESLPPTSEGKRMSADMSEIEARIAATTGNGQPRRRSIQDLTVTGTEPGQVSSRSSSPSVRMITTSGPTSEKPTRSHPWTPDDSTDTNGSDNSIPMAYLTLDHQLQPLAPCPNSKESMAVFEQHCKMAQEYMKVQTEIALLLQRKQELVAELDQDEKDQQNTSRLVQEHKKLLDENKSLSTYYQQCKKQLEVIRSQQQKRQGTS

[3] = target: T3, TAK1 (transfected, tag not given) (UniProt O43318); assay: as above
T3 sequence: T2 sequence

[4] = target: T4, HA-tagged 90K (UniProt Q08380); assay: as above
T4 sequence: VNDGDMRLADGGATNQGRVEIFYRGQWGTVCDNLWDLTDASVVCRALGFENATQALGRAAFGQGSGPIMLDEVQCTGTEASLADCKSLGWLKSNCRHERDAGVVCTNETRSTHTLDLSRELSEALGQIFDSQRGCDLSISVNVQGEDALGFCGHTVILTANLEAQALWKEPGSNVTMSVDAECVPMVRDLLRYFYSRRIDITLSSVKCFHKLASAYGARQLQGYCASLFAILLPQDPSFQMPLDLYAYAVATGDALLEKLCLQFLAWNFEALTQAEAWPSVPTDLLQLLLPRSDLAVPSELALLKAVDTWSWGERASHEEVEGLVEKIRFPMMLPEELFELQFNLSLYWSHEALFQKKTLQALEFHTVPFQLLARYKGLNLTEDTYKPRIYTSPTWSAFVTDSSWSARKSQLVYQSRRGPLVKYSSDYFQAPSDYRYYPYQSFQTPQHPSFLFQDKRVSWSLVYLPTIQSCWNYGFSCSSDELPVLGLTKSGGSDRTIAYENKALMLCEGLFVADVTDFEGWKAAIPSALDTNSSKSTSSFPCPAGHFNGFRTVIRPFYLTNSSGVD

[5] = target: T5, TAK1 (endogenous) (human (endogenous in A549 and 293T)) (UniProt O43318); assay: co-IP; endogenous proteins of A549 cells, infected with SeV for the indicated times or left uninfected; Nonidet P-40 lysis buffer, protein A/G agarose, washes with 500 mM NaCl
T5 sequence: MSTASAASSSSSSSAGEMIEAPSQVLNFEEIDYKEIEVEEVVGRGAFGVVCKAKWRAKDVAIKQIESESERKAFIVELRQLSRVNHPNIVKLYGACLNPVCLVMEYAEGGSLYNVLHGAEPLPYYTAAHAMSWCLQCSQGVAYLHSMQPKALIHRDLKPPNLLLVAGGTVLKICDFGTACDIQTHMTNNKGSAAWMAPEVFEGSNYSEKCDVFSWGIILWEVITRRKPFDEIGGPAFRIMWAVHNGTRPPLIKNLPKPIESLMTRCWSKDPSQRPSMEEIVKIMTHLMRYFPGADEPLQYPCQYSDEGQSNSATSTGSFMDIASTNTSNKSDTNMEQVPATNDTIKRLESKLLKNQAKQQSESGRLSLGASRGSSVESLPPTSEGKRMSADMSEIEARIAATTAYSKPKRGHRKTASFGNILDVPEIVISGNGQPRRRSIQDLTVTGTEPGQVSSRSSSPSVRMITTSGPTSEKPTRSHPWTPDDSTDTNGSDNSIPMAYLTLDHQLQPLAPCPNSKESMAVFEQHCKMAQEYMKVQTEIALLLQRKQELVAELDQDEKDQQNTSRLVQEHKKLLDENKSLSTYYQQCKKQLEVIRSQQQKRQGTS

B1: Myc-tagged 90K (galectin 3 binding protein, LGALS3BP) (protein, UniProt Q08380 19-585)
chain: T4 sequence
binding [1]: binds
binding [2]: binds

B2: HA-tagged 90K (protein, UniProt Q08380 19-585)
chain: T4 sequence
binding [3]: binds

B3: TAK1 (transfected, tag not stated in the text) (protein, UniProt O43318-2 1-579)
chain: T2 sequence
binding [4]: binds

B4: 90K (endogenous) (protein, UniProt Q08380 19-585)
chain: T4 sequence
binding [5]: binds
